Assay results taken from the supplement of paper PMC10849652.
Some of the results follow.

Chains of the proteins cited; added tags and fusions are not shown. Lines headed by an entry give the natural chain unless they say otherwise; changes in a name come on top.
UniProt Q9UMY4: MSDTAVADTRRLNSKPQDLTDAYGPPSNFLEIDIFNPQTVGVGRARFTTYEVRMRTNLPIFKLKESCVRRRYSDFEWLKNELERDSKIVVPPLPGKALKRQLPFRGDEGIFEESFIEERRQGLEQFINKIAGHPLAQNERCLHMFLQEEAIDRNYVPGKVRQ
UniProt Q13424: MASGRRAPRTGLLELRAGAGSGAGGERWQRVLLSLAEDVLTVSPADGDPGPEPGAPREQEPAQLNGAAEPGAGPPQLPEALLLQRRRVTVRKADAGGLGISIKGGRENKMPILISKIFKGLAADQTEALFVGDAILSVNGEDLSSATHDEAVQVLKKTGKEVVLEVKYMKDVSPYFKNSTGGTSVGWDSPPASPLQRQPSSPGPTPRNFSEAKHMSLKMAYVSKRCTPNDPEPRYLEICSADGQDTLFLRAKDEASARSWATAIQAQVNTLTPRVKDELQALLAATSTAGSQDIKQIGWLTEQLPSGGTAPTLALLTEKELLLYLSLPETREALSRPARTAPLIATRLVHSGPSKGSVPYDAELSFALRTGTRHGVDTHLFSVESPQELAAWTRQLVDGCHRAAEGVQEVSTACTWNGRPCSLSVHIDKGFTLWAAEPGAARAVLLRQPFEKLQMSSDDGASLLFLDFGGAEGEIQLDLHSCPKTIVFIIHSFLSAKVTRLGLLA
UniProt P04179: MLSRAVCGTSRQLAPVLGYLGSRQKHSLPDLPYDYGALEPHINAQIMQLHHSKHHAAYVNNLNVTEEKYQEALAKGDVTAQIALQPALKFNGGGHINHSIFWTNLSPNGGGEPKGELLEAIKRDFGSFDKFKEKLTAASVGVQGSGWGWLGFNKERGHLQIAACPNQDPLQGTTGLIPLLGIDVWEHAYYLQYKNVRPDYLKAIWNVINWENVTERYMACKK
UniProt P51532, whole entry, looked up: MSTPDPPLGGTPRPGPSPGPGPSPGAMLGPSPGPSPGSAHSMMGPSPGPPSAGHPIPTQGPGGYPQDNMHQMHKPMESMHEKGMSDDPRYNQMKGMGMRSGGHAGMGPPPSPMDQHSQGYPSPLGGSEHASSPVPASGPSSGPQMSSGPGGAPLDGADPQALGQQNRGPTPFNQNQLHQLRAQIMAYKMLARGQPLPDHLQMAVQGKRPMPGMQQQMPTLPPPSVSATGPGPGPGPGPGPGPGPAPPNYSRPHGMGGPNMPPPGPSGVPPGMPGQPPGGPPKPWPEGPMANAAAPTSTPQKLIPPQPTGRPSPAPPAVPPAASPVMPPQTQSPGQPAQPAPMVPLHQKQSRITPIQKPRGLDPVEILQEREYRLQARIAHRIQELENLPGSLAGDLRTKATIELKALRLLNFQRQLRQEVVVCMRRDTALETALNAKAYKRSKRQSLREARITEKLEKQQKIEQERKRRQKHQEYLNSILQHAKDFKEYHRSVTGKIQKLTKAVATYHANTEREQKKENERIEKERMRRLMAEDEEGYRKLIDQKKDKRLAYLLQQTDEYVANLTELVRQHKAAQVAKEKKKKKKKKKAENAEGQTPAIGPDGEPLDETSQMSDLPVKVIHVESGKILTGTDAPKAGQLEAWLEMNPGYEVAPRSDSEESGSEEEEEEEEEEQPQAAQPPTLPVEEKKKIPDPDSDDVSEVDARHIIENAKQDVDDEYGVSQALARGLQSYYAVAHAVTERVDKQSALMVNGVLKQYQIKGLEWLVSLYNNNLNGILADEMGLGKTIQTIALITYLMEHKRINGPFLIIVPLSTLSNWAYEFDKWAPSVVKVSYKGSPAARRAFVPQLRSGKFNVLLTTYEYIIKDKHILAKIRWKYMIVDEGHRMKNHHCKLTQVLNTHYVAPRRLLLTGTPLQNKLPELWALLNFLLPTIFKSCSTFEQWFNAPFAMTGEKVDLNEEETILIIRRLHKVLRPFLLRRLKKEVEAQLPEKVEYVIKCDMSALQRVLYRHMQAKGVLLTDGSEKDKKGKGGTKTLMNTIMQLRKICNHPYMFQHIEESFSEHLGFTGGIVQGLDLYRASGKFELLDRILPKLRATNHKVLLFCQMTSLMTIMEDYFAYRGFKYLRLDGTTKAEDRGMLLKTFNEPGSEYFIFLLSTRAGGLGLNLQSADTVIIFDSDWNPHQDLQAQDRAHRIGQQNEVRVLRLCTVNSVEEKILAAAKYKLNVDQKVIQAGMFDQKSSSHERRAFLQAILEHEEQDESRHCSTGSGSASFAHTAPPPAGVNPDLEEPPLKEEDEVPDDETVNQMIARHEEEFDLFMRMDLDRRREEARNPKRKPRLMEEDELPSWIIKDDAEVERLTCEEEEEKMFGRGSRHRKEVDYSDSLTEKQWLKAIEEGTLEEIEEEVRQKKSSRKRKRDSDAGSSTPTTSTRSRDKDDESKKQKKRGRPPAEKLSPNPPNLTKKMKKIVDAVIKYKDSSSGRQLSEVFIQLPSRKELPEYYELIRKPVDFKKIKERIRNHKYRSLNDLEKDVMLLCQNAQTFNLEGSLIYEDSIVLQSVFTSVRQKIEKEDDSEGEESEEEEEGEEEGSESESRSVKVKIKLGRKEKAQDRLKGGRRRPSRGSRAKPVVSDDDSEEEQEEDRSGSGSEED
UniProt P57768: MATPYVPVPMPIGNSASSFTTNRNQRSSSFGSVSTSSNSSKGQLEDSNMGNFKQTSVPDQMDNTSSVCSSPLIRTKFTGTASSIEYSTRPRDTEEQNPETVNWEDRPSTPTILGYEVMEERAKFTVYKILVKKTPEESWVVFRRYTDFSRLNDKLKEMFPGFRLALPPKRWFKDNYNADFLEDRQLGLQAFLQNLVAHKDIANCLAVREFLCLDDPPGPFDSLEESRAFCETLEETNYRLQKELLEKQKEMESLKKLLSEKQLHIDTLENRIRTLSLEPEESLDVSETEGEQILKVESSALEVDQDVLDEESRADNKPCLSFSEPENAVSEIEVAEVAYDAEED
UniProt Q99523, whole entry, looked up: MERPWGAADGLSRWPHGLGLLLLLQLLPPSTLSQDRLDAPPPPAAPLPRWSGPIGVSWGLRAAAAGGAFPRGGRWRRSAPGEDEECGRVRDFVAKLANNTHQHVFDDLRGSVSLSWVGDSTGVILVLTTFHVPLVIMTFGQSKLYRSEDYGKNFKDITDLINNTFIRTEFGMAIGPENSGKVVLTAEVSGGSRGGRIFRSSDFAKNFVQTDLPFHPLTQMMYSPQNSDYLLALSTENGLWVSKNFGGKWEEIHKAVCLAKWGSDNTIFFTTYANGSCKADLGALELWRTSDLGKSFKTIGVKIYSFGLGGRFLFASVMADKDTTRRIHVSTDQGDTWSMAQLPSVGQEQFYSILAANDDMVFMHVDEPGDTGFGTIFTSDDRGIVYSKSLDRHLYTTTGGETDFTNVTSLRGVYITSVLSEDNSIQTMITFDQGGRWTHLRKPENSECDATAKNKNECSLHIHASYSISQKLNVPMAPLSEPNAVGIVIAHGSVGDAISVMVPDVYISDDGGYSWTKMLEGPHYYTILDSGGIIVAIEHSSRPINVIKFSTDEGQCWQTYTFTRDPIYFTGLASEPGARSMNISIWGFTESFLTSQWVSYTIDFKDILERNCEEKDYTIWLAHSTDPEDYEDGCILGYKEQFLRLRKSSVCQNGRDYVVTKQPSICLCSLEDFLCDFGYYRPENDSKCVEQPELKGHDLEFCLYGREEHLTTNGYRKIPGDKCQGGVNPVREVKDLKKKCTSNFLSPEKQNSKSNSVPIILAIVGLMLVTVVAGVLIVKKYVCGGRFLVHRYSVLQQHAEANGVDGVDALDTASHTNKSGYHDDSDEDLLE
UniProt Q96R06: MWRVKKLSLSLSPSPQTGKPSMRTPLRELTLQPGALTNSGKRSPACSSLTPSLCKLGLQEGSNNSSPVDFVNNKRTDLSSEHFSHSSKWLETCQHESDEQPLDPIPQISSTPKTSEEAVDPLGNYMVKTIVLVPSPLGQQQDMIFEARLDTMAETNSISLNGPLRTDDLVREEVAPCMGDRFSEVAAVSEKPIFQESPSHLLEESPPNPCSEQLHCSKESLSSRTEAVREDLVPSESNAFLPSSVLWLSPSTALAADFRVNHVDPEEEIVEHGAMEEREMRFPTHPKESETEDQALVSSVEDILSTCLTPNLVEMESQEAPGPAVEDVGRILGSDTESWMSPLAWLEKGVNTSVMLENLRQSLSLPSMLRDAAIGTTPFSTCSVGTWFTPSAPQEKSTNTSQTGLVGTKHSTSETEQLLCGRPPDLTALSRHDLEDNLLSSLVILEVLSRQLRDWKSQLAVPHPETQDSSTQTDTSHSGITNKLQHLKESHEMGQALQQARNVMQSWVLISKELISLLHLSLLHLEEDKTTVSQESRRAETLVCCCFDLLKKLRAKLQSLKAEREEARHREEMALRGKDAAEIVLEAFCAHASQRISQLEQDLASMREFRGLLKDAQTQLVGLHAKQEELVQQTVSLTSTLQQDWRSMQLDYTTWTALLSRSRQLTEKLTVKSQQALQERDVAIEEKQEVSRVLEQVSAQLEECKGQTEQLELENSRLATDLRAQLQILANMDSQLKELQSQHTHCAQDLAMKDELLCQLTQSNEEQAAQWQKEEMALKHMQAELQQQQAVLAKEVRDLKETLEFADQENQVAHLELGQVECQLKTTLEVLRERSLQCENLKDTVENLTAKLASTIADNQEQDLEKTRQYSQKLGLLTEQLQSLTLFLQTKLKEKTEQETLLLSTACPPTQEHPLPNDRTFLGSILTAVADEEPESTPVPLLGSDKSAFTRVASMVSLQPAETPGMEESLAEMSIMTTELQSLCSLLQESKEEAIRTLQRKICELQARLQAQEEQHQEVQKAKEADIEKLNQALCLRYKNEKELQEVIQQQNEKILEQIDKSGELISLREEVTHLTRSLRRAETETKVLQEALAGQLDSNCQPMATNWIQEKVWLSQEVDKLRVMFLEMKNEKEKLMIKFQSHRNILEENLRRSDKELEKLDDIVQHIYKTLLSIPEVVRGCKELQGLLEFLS
UniProt P09012, whole entry, looked up: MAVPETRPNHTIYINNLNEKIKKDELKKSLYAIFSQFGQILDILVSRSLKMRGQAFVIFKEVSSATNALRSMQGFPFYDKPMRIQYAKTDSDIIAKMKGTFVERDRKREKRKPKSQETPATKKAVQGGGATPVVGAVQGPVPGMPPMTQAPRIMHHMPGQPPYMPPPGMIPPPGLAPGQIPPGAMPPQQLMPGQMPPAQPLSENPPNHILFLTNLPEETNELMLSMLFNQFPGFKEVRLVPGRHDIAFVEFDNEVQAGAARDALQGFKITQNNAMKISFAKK
UniProt P62318, whole entry, looked up: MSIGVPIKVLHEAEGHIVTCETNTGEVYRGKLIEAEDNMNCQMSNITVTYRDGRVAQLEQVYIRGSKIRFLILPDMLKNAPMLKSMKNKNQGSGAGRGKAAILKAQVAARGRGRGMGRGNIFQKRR
UniProt Q8TAQ2, whole entry, looked up: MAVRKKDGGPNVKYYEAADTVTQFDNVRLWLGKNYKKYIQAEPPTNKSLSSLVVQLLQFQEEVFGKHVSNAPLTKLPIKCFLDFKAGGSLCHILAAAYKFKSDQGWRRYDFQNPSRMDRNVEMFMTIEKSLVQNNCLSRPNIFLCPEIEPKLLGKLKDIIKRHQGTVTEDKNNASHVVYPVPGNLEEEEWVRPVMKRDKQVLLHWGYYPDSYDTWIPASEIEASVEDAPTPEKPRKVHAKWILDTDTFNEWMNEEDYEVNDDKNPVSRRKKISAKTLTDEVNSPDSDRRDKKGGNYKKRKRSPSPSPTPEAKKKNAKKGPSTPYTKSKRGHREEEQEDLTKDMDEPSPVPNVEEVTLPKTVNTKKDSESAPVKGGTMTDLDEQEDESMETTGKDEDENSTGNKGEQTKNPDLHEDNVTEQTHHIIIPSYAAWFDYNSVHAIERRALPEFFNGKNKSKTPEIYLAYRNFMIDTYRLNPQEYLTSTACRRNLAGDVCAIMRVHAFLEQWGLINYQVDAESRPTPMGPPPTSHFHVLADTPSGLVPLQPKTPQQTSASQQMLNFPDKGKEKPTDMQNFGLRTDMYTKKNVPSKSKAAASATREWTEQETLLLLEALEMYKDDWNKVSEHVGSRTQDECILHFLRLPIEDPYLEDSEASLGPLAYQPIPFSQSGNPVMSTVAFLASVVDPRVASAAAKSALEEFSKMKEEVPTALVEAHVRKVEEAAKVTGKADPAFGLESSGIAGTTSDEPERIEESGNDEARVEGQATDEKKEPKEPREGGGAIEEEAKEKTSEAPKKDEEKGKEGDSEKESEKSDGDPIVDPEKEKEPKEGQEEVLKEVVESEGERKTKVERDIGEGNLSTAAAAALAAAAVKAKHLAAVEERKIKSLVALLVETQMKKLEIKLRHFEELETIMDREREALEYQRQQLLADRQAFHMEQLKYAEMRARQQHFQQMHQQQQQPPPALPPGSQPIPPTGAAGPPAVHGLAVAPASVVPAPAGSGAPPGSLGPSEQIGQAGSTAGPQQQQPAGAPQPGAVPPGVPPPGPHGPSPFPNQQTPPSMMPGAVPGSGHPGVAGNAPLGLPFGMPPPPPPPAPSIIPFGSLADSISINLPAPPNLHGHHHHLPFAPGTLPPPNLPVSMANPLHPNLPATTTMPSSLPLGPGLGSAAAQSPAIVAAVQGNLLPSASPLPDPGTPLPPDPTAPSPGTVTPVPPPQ

Tests used:
Test in all cases: log2 fold change, soluble protein after heating vs DMSO (PISA); higher = thermal stabilisation; K562 lysate, 10 uM; active = over 0.2 and 3.5 SD of the protein, either way, in both replicates (recomputed)
lapatinib = compound: CS(=O)(=O)CCNCc1ccc(-c2ccc3ncnc(Nc4ccc(OCc5cccc(F)c5)c(Cl)c4)c3c2)o1 [lapatinib]
Summary of the method: (§1)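 Quantification was by TMTpro 16plex LC-MS/MS with equalised channel sums, applied to the supernatant after 21,000xg for 90 min. Samples were crude K562 extract at 1 mg/mL protein in PBS pH 7.4 with 1 mM MgCl2, treated with 10 μM compound for 30 min, heated for 3 min across 48°C-58°C, pooled and brought to 0.5% NP-40 at 4°C. Values are log-two fold changes in thermal stability relative to solvent controls, from duplicates.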

pictilisib = compound: CS(=O)(=O)N1CCN(Cc2cc3nc(-c4cccc5[nH]ncc45)nc(N4CCOCC4)c3s2)CC1 [pictilisib]
Summary of the method: as §1

crizotinib = compound: C[C@@H](Oc1cc(-c2cnn(C3CCNCC3)c2)cnc1N)c1c(Cl)ccc(F)c1Cl [crizotinib]
Summary of the method: as §1

[1] = compound: C[C@H](C1=CC=C(C=C1)C(=O)NC2=C3C=CNC3=NC=C2)N
Summary of the method: as §1

duvelisib = compound: C[C@H](Nc1ncnc2nc[nH]c12)c1cc2cccc(Cl)c2c(=O)n1-c1ccccc1 [duvelisib]
Summary of the method: as §1

gandotinib = compound: Cc1cc(Nc2cc(CN3CCOCC3)c3nc(C)c(Cc4ccc(Cl)cc4F)n3n2)n[nH]1 [gandotinib]
Summary of the method: as §1

tozasertib = compound: Cc1cc(Nc2cc(N3CCN(C)CC3)nc(Sc3ccc(NC(=O)C4CC4)cc3)n2)n[nH]1 [tozasertib]
Summary of the method: as §1

doramapimod = compound: Cc1ccc(-n2nc(C(C)(C)C)cc2NC(=O)Nc2ccc(OCCN3CCOCC3)c3ccccc23)cc1 [doramapimod]
Summary of the method: as §1

bafetinib = compound: Cc1ccc(NC(=O)c2ccc(CN3CC[C@H](N(C)C)C3)c(C(F)(F)F)c2)cc1Nc1nccc(-c2cncnc2)n1 [bafetinib]
Summary of the method: as §1

[2] = compound: Cc1cccc(CC(=O)N2CCc3c2ccc(-c2cn(C)c4ncnc(N)c24)c3F)n1
Summary of the method: as §1

nilotinib = compound: Cc1cn(-c2cc(NC(=O)c3ccc(C)c(Nc4nccc(-c5cccnc5)n4)c3)cc(C(F)(F)F)c2)cn1 [nilotinib]
Summary of the method: as §1

[3] = compound: Cc1nc(Nc2n[nH]c3c2CN(C(=O)N[C@H](CN(C)C)c2ccccc2)C3(C)C)c2sccc2n1
Summary of the method: as §1

dasatinib = compound: Cc1nc(Nc2ncc(C(=O)Nc3c(C)cccc3Cl)s2)cc(N2CCN(CCO)CC2)n1 [dasatinib]
Summary of the method: as §1

[4] = compound: Cc1ncc(-c2ccnc(Nc3ccc(S(C)(=O)=O)cc3)n2)n1C(C)C
Summary of the method: as §1

[5] = compound: Cn1cc(-c2ccc3c(c2)CCN3C(=O)Cc2cccc(C(F)(F)F)c2)c2c(N)ncnc21
Summary of the method: as §1

quisinostat = compound: Cn1cc(CNCC2CCN(c3ncc(C(=O)NO)cn3)CC2)c2ccccc21 [quisinostat]
Summary of the method: as §1

tipifarnib = compound: Cn1cncc1[C@@](N)(c1ccc(Cl)cc1)c1ccc2c(c1)c(-c1cccc(Cl)c1)cc(=O)n2C [tipifarnib]
Summary of the method: as §1

[6] = compound: NC(=O)Nc1cc(-c2cccc(F)c2)sc1C(=O)N[C@H]1CCCNC1
Summary of the method: as §1

[7] = compound: NC(=O)c1cnc(N[C@@H]2CCCC[C@@H]2N)nc1Nc1cccc(-n2nccn2)c1
Summary of the method: as §1

[8] = compound: NC1(c2ccc(-c3nc4ccn5c(=O)[nH]nc5c4cc3-c3ccccc3)cc2)CCC1
Summary of the method: as §1

Row | Target | log2 fold change (lapatinib) | log2 fold change (pictilisib) | log2 fold change (crizotinib) | log2 fold change [1] | log2 fold change (duvelisib) | log2 fold change (gandotinib) | log2 fold change (tozasertib) | log2 fold change (doramapimod) | log2 fold change (bafetinib) | log2 fold change [2] | log2 fold change (nilotinib) | log2 fold change [3] | log2 fold change (dasatinib) | log2 fold change [4] | log2 fold change [5] | log2 fold change (quisinostat) | log2 fold change (tipifarnib) | log2 fold change [6] | log2 fold change [7] | log2 fold change [8]
1 | SMTN isoform 6 (UniProt P53814) | inactive: 0.103 | inactive: -0.042 | inactive: -0.012 | inactive: -0.06 | inactive: 0.033 | inactive: 0.032 | inactive: 0.019 | inactive: 0.006 | inactive: 0.059 | inactive: 0.028 | inactive: -0.011 | inactive: 0.134 | inactive: -0.055 | inactive: -0.022 | inactive: 0.031 | inactive: -0.065 | inactive: -0.019 | inactive: 0.021 | inactive: -0.005 | inactive: 0.089
2 | SNX12 isoform 1 (UniProt Q9UMY4) | inactive: 0.03 | inactive: 0.002 | inactive: 0.029 | inactive: 0.027 | inactive: 0.024 | inactive: -0.038 | inactive: 0.034 | inactive: 0.023 | inactive: 0.006 | inactive: -0.044 | inactive: -0.003 | inactive: 0.006 | inactive: 0.021 | inactive: -0.017 | inactive: -0.026 | inactive: 0.078 | inactive: 0.034 | inactive: -0.04 | inactive: 0.003 | inactive: 0.028
3 | SNTA1 (UniProt Q13424) | inactive: -0.098 | inactive: -0.001 | inactive: -0.091 | inactive: -0.085 | inactive: 0.043 | inactive: 0.035 | inactive: -0.032 | inactive: 0.041 | inactive: -0.06 | inactive: -0.038 | inactive: -0.001 | inactive: 0.002 | inactive: -0.09 | inactive: -0.03 | inactive: -0.104 | inactive: -0.09 | inactive: 0.08 | inactive: 0.016 | inactive: 0.084 | inactive: -0.002
4 | SOD2 (UniProt P04179) | inactive: -0.006 | inactive: 0.01 | inactive: 0.036 | inactive: -0.062 | inactive: 0.02 | inactive: 0.081 | inactive: -0.027 | inactive: -0.084 | inactive: 0.102 | inactive: 0.019 | inactive: 0.038 | inactive: -0.008 | inactive: -0.016 | inactive: 0.015 | inactive: -0.002 | inactive: 0.058 | inactive: -0.005 | inactive: -0.061 | inactive: -0.007 | inactive: 0.008
5 | SMARCA4 (UniProt P51532) | inactive: -0.029 | inactive: -0.008 | inactive: -0.01 | inactive: -0.009 | inactive: -0.003 | inactive: -0.022 | inactive: 0.012 | inactive: 0.008 | inactive: -0.008 | inactive: 0.054 | inactive: -0.002 | inactive: 0.023 | inactive: -0.042 | inactive: -0.019 | inactive: 0.004 | inactive: -0.029 | inactive: -0.018 | inactive: 0.043 | inactive: 0.004 | inactive: -0.024
6 | SNX16 (UniProt P57768) | inactive: 0.071 | inactive: -0.073 | inactive: -0.067 | inactive: 0.137 | inactive: -0.008 | inactive: 0.094 | inactive: 0.175 | inactive: 0.037 | inactive: -0.07 | inactive: 0.102 | inactive: -0.012 | inactive: -0.063 | inactive: -0.046 | inactive: 0.068 | inactive: 0.023 | inactive: 0.113 | inactive: 0.191 | inactive: 0.09 | inactive: -0.031 | inactive: -0.015
7 | SNRNP48 (UniProt Q6IEG0) | inactive: 0.007 | inactive: 0.047 | inactive: 0.01 | inactive: -0.243 | inactive: -0.061 | inactive: 0.054 | inactive: -0.049 | inactive: 0.088 | inactive: -0.192 | inactive: 0.198 | inactive: -0.04 | inactive: 0.05 | inactive: -0.007 | inactive: 0 | inactive: 0.046 | inactive: -0.002 | inactive: -0.093 | inactive: 0.01 | inactive: -0.02 | inactive: -0.079
8 | SNRK (UniProt Q9NRH2) | inactive: -0.04 | inactive: 0.046 | inactive: 0 | inactive: -0.004 | inactive: -0.099 | inactive: -0.047 | inactive: 0.031 | inactive: 0.011 | inactive: -0.005 | inactive: 0.108 | inactive: -0.137 | inactive: 0.151 | inactive: -0.279 | inactive: -0.116 | inactive: 0.088 | inactive: -0.147 | inactive: -0.094 | inactive: 0.194 | inactive: -0.054 | inactive: 0.152
9 | SORT1 (UniProt Q99523) | inactive: -0.006 | inactive: -0.02 | inactive: -0.003 | inactive: -0.016 | inactive: 0.036 | inactive: 0.034 | inactive: 0.002 | inactive: -0.028 | inactive: 0.001 | inactive: 0.014 | inactive: -0.012 | inactive: 0.019 | inactive: 0.033 | inactive: -0.057 | inactive: 0.005 | inactive: -0.026 | inactive: -0.021 | inactive: 0.004 | inactive: 0.016 | inactive: 0.024
10 | SPAG5 (UniProt Q96R06) | inactive: 0.013 | inactive: -0.004 | inactive: -0.056 | inactive: -0.016 | inactive: 0.038 | inactive: -0.11 | inactive: 0.029 | inactive: 0.036 | inactive: -0.044 | inactive: 0.058 | inactive: 0.026 | inactive: -0.013 | inactive: -0.006 | inactive: 0.001 | inactive: 0.02 | inactive: -0.051 | inactive: -0.045 | inactive: 0.001 | inactive: 0.004 | inactive: -0.008
11 | SNAPIN (UniProt O95295) | inactive: -0.014 | inactive: -0.102 | inactive: -0.024 | inactive: -0.053 | inactive: 0.007 | inactive: 0.025 | inactive: 0.034 | inactive: 0.067 | inactive: -0.088 | inactive: 0.023 | inactive: -0.013 | inactive: 0.001 | inactive: 0.052 | inactive: 0.011 | inactive: -0.039 | inactive: -0.017 | inactive: -0.033 | inactive: -0.031 | inactive: 0.032 | inactive: -0.003
12 | SNRPA (UniProt P09012) | inactive: -0.03 | inactive: 0.001 | inactive: 0.004 | inactive: -0.055 | inactive: 0.009 | inactive: 0.063 | inactive: 0.007 | inactive: -0.013 | inactive: -0.004 | inactive: 0.013 | inactive: 0.009 | inactive: -0.013 | inactive: -0.002 | inactive: -0.017 | inactive: -0.014 | inactive: 0.01 | inactive: 0.006 | inactive: -0.003 | inactive: -0.004 | inactive: -0.016
13 | SNX3 (UniProt O60493) | inactive: 0.007 | inactive: -0.01 | inactive: 0.018 | inactive: -0.023 | inactive: 0.013 | inactive: -0.02 | inactive: 0.005 | inactive: -0.005 | inactive: -0.006 | inactive: 0.003 | inactive: -0.014 | inactive: 0.007 | inactive: -0.017 | inactive: -0.012 | inactive: 0.023 | inactive: 0.033 | inactive: 0.011 | inactive: -0.001 | inactive: 0.014 | inactive: 0.071
14 | SNX27 (UniProt Q96L92) | inactive: 0.01 | inactive: -0.032 | inactive: -0.026 | inactive: 0.019 | inactive: -0.012 | inactive: -0.128 | inactive: 0.044 | inactive: 0.027 | inactive: -0.042 | inactive: 0.027 | inactive: -0.016 | inactive: -0.019 | inactive: -0.003 | inactive: -0.004 | inactive: 0.004 | inactive: -0.027 | inactive: 0.023 | inactive: 0.033 | inactive: 0.018 | inactive: -0.031
15 | SNRPD3 (UniProt P62318) | inactive: -0.027 | inactive: -0.06 | inactive: 0.008 | active: -0.233 | inactive: 0.052 | inactive: 0.102 | inactive: 0.028 | inactive: 0.014 | inactive: 0.069 | inactive: 0.11 | inactive: 0.028 | inactive: -0.006 | inactive: 0.016 | inactive: -0.034 | inactive: 0.009 | inactive: -0.002 | inactive: -0.002 | inactive: 0.029 | inactive: 0.004 | inactive: 0.001
16 | SMARCC2 (UniProt Q8TAQ2) | inactive: 0.002 | inactive: 0 | inactive: -0.011 | inactive: -0.012 | inactive: -0.002 | inactive: -0.039 | inactive: 0.003 | inactive: -0.003 | inactive: -0.048 | inactive: 0.034 | inactive: 0.002 | inactive: -0.01 | inactive: -0.037 | inactive: -0.018 | inactive: 0.025 | inactive: -0.017 | inactive: -0.011 | inactive: 0.021 | inactive: 0.014 | inactive: 0.002

Four entries from above, tab-delimited.
Row	Target	log2 fold change (lapatinib)	log2 fold change (pictilisib)	log2 fold change (crizotinib)	log2 fold change [1]	log2 fold change (duvelisib)	log2 fold change (gandotinib)	log2 fold change (tozasertib)	log2 fold change (doramapimod)	log2 fold change (bafetinib)	log2 fold change [2]	log2 fold change (nilotinib)	log2 fold change [3]	log2 fold change (dasatinib)	log2 fold change [4]	log2 fold change [5]	log2 fold change (quisinostat)	log2 fold change (tipifarnib)	log2 fold change [6]	log2 fold change [7]	log2 fold change [8]
8	SNRK (UniProt Q9NRH2)	inactive: -0.04	inactive: 0.046	inactive: 0	inactive: -0.004	inactive: -0.099	inactive: -0.047	inactive: 0.031	inactive: 0.011	inactive: -0.005	inactive: 0.108	inactive: -0.137	inactive: 0.151	inactive: -0.279	inactive: -0.116	inactive: 0.088	inactive: -0.147	inactive: -0.094	inactive: 0.194	inactive: -0.054	inactive: 0.152
9	SORT1 (UniProt Q99523)	inactive: -0.006	inactive: -0.02	inactive: -0.003	inactive: -0.016	inactive: 0.036	inactive: 0.034	inactive: 0.002	inactive: -0.028	inactive: 0.001	inactive: 0.014	inactive: -0.012	inactive: 0.019	inactive: 0.033	inactive: -0.057	inactive: 0.005	inactive: -0.026	inactive: -0.021	inactive: 0.004	inactive: 0.016	inactive: 0.024
12	SNRPA (UniProt P09012)	inactive: -0.03	inactive: 0.001	inactive: 0.004	inactive: -0.055	inactive: 0.009	inactive: 0.063	inactive: 0.007	inactive: -0.013	inactive: -0.004	inactive: 0.013	inactive: 0.009	inactive: -0.013	inactive: -0.002	inactive: -0.017	inactive: -0.014	inactive: 0.01	inactive: 0.006	inactive: -0.003	inactive: -0.004	inactive: -0.016
13	SNX3 (UniProt O60493)	inactive: 0.007	inactive: -0.01	inactive: 0.018	inactive: -0.023	inactive: 0.013	inactive: -0.02	inactive: 0.005	inactive: -0.005	inactive: -0.006	inactive: 0.003	inactive: -0.014	inactive: 0.007	inactive: -0.017	inactive: -0.012	inactive: 0.023	inactive: 0.033	inactive: 0.011	inactive: -0.001	inactive: 0.014	inactive: 0.071
